According to publication PMC10944868, “Synthesis, biological and computational evaluation of novel cyanomethyl vinyl ether derivatives” (Frontiers in Pharmacology, 2024):

What was measured:
[1] = tested on: SKOV3 (human ovarian carcinoma); test: Cytotoxicity assay (CCK8), SKOV3; assay type: cell-based; details: SK-OV-3, SKOV3 cells, 48 h
Protocol: (§1) Cells were cultured according to the supplier´s instructions (ATCC technologies, A-549 (CCL-185), BT-20 (HTB-19), SKOV3 (HTB-77), HCT116 (CCL-247), MRC5 (CCL-171). Cells were seeded in 96-well plates at a density of 2–2.5 × 10^3 cells per well and incubated overnight in 0.1 mL of media supplied with 10% Fetal Bovine Serum (Lonza) in 5% CO2 incubator at 37°C. On day 2, drugs were added and samples were incubated for 48 h. After treatment, 10 µL of cell counting kit-8 was added into each well for additional 2 h incubation at 37°C. The absorbance of each well was determined by an Automatic Elisa Reader System at 450 nm wavelength.
(§2) The cytotoxicity of the new synthesized 3-(cyanomethoxy)acrylates was investigated in vitro by testing the antiproliferative activities against two human cancer cell lines: A549 (carcinomic human alveolar basal epithelial cells), SKOV3 (human ovarian carcinoma), BT20 (human breast carcinoma), HCT-116 (human colorectal carcinoma) and MRC-5 (non-malignant lung fibroblasts). The cell counting kit (CCK8) assay was employed to assess growth inhibition and, the cell proliferation inhibitory activities of the compounds are listed in Table 1 as IC50 values (Table 1).

[2] = tested on: BT20 (human breast carcinoma); test: Cytotoxicity assay (CCK8), BT20; assay type: cell-based; details: BT-20, BT20 cells, 48 h
Protocol: as §1, §2

## COc1cc2c(c(OC)c1OC)-c1ccc(OC)c(=O)cc1[C@@H](NC(C)=O)CC2 [COL, colchicine, reference compound]
[1]
  IC50: 11.6 ± 2.33 µM
[2]
  IC50: 22 ± 1.3 µM
